Reference: patent publication US20120094910 (published 2012)

Assays:
[1] = general procedure: Fmoc solid-phase peptide synthesis; Rink amide resin; DIC/HOBt; details: whole synthesis, scale 10 mmol
[2] = general procedure: Fmoc solid-phase peptide synthesis; Rink amide resin (10 g, loading 1.0 mmol/g); DIC/HOBt; details: purification step, RP-HPLC and LC-MS

## Mpa-Tyr-Phe-Gln-Asn-Cys-Pro-DArg-Gly-NH2
[1]; RP-HPLC and LC-MS
  final HPLC purity: ˜95%
[1]
  isolated mass: 9.0 g
[2]
  final purity (method not given): ˜95%
